Measured values: US20250114355A1, “TREATING LIVER DISEASE” (Mayo Foundation for Medical Education and Research, priority 2021, published 2025)
Entries after “also recorded” stand apart in the source; their conditions may differ. For part of these data: At least one compound was matched to its structure with a doubt left. Some of these results come from one statement about several compounds together.

Assays:
[1] = tested on: CXCL chemokine expression in LSECs; test: CXCL chemokine expression by qPCR in LSECs with or without TNFα stimulation; type: cell-based, human
Procedure: LSECs were thawed and cultured according to standard cell culture conditions and according to manufacture instruction (ScienCell). Briefly, LSECs are plated at low confluency and cultured in Endothelial cell medium (Cell 211-500). Fresh medium changed every other day and cells are split when close to confluency. For TNFα stimulation experiments, low passage cells were plated at 70% confluency and cultured overnight. Serum starvation was performed by changing cells to low-serum medium (0.5% FBS in basal endothelial medium (Lonza CC-3121)) for 2 hours. Human TNFα at concentration 10 ng/mL was added to low-serum medium and incubated with cells for 90 minutes before cells were collected and assayed for downstream analysis. […] Inhibitors were added at concentrations indicated to low-serum medium, and cells were incubated in inhibitor containing medium for 2 hours. After inhibitor treatment, medium change was performed with TNFα (Peprotech 300-01A) at 10 ng/ml or control low-serum medium for 90 minutes incubation. LSECs were then collected for analysis.
mRNA levels were quantified by real-time reverse transcription PCR. RNA extraction was performed with RNeasy kit (Qiagen 74104) from cells and mouse tissue according to the manufacturer's instructions. RNA Quantification was performed with spectrophotometry (NanoDrop, Thermo Scientific). […]

[2] = tested on: neutrophil chemotaxis; test: Transwell neutrophil chemotaxis assay with LSEC supernatant; type: cell-based, human; conditions: LSECs pretreated with TNFα and celastrol
[3] = tested on: H3K27ac occupancy in LSECs; test: ChIP-qPCR for H3K27ac occupancy at CXCL1 promoter and CXCL super enhancer in LSECs; type: cell-based, human; conditions: TNFα stimulation
[4] = tested on: human hepatic sinusoidal endothelial cells (HHSEC); test: In vitro LPS-induced inflammation model, qPCR of CXCL1 and CCL2 in HHSEC; type: cell-based; conditions: LPS 200 ng/mL, inhibitor 0.31, 1.25, 5 μM, dose dependent reduction

Structure (SMILES)	CXCL chemokine expression in LSECs ([1]; LSECs pretreated with inhibitor, with or without TNFα, qPCR)	CXCL1, 6 and 8 expression (qPCR, log10 fold change) ([1]; LSECs, UMN627 0-50 μM or celastrol 0 to 5 μM, trend with increasing concentration, p<0.0001)	neutrophil chemotaxis to lower chamber [2]	neutrophil chemotaxis to lower chamber ([2]; listed as Celastrol)	H3K27ac occupancy at CXCL1 promoter and CXCL SE E1 site [3]	CXCL1 and CCL2 chemokine expression compared to the LPS control [4]
CC1=C(O)C(=O)C=C2C1=CC=C1[C@@]2(C)CC[C@@]2(C)[C@@H]3C[C@](C)(C(=O)O)CC[C@]3(C)CC[C@]12C [celastrol]	significantly decreased CXCL chemokine expression	significant linear trend of decreasing CXCL1, 6, and 8 expression	decreased with pretreatment with celastrol	diminished chemotaxis in a dose-dependent manner	decreased with celastrol; also recorded: attenuated after celastrol treatment	
Cc1cc(C)cc(Nc2nccc(-c3c(-c4ccc(C(F)(F)F)cc4)ncn3C3CCN(CCN)CC3)n2)c1 [UMN627]						below 50%
